The target of the experiment is murine strep-tagged TNC (mTNC) (mouse) (UniProt Q80YX1). Briefly: co-purification with recombinant mTNC, 1 M NaCl eluate, mass spectrometry.

Sequences of proteins named here, by UniProt entry; tags and fusion partners are left off. Residues count along the entry.
UniProt Q80YX1, residues 23-2110: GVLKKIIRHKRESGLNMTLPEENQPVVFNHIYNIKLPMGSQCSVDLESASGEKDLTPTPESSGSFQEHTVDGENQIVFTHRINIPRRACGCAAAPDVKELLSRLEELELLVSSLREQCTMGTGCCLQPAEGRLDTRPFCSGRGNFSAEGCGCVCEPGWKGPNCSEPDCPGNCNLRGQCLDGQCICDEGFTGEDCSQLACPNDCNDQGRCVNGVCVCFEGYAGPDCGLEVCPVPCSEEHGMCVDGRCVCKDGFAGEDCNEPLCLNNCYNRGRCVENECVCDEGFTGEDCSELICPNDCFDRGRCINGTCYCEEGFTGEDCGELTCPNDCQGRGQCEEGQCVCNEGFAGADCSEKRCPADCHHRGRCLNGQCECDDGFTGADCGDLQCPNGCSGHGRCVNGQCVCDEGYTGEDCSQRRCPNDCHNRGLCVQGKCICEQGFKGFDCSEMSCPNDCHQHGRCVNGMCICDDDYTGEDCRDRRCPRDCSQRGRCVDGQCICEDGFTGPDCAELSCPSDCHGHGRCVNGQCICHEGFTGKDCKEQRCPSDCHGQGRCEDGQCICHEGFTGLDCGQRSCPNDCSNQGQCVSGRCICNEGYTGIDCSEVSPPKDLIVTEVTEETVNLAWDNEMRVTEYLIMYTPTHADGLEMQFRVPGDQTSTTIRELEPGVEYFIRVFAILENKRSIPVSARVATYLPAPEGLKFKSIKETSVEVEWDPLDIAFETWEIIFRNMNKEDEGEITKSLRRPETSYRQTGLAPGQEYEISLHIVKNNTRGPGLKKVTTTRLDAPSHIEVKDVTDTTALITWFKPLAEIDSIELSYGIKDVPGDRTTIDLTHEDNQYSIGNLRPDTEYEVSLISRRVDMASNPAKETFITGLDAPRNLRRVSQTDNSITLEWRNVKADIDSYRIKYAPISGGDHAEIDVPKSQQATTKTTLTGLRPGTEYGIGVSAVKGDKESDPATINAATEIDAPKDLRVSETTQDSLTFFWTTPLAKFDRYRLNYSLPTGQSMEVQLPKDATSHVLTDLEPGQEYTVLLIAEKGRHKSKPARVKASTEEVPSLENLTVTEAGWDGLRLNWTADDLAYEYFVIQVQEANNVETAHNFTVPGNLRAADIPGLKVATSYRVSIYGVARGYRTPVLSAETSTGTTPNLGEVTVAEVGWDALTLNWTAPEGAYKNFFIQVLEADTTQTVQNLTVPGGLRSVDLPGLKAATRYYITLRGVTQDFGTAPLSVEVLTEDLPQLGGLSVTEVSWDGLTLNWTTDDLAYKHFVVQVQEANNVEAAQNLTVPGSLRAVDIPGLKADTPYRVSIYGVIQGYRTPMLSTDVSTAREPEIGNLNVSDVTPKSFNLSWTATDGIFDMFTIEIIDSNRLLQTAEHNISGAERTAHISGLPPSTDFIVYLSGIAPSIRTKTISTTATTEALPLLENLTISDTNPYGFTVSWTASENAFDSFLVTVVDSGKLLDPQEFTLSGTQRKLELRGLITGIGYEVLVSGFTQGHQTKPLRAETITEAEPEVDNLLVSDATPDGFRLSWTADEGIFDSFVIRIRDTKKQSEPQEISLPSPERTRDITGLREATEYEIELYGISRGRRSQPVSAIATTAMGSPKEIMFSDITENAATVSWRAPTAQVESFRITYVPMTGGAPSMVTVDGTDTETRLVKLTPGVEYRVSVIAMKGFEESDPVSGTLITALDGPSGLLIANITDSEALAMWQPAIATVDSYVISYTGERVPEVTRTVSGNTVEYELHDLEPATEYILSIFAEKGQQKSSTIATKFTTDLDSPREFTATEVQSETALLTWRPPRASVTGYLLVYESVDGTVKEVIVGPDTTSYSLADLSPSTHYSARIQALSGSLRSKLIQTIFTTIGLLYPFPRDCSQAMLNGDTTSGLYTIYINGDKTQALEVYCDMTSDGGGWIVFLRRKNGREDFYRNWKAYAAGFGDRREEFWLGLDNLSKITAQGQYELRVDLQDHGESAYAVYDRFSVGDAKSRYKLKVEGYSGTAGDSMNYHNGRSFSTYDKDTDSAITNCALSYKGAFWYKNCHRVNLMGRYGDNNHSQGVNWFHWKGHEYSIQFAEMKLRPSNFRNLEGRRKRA
UniProt P51859: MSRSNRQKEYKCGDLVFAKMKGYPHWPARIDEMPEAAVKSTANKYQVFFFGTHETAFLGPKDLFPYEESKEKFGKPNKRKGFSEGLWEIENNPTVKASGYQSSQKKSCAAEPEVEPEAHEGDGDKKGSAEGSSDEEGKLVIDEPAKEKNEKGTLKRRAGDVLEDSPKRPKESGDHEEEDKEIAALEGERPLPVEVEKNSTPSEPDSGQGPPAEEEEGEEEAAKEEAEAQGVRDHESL
UniProt P12032, residues 25-205: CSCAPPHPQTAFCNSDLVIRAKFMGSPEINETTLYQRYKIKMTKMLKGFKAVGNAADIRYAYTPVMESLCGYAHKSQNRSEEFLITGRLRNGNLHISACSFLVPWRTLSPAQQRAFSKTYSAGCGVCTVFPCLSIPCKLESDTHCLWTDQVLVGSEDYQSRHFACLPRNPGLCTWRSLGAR
UniProt P58022, residues 26-776: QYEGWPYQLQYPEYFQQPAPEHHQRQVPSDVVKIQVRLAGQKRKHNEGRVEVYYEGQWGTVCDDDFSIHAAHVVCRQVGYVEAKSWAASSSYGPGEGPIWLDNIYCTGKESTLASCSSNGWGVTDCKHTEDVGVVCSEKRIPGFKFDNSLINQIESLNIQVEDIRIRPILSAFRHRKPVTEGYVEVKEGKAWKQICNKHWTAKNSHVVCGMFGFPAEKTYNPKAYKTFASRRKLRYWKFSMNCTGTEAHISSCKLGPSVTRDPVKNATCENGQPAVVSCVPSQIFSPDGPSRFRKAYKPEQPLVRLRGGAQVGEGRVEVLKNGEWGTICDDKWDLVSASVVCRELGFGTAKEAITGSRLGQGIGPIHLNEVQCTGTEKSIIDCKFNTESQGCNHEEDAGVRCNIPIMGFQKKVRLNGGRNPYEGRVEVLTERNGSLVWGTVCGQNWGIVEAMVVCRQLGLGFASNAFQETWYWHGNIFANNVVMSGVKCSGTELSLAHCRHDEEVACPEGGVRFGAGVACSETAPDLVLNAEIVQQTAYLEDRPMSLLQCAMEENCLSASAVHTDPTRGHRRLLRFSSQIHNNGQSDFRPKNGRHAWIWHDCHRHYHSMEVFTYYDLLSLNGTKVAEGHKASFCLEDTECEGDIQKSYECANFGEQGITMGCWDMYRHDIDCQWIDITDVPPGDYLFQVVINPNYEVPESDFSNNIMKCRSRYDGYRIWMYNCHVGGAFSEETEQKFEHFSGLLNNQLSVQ
UniProt P48036, residues 2-319: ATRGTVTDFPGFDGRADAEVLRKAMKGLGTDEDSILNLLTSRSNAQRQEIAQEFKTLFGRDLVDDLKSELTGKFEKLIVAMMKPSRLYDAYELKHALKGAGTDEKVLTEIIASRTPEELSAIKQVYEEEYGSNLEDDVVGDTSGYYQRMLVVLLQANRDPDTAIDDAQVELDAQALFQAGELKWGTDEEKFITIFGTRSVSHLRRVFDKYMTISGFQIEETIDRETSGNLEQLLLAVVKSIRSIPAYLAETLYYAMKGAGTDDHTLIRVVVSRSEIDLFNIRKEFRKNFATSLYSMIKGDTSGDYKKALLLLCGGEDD
UniProt P08113, residues 22-802: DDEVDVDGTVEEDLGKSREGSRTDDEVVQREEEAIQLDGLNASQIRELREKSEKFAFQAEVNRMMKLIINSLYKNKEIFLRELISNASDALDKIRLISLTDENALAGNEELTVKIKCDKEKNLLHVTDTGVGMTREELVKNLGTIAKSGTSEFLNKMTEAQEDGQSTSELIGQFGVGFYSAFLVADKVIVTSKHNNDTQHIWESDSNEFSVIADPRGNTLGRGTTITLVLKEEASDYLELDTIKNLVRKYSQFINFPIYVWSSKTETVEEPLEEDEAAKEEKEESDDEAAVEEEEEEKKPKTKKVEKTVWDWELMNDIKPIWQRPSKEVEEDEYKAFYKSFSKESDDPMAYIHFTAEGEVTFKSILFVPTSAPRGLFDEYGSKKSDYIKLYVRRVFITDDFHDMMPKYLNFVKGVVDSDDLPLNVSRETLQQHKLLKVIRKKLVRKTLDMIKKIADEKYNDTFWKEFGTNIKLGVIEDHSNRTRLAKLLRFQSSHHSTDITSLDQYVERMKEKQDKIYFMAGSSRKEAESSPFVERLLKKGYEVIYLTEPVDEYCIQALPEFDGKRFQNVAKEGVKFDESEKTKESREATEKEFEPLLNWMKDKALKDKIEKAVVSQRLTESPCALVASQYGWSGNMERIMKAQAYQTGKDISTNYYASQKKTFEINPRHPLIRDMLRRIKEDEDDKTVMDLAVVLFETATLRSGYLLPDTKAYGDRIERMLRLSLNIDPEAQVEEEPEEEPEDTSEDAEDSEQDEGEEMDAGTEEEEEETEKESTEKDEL
UniProt P14211, residues 18-416: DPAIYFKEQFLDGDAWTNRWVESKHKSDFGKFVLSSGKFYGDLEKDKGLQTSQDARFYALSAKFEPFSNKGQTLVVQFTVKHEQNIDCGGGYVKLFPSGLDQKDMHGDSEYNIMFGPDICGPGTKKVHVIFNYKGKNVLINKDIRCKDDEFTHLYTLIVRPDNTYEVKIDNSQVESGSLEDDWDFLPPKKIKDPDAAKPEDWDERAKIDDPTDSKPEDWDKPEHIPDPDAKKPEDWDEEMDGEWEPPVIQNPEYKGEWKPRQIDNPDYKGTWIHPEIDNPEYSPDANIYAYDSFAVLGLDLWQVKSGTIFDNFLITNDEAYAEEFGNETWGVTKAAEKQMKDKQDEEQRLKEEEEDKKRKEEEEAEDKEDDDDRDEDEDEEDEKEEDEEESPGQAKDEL
UniProt O88207, residues 37-1838: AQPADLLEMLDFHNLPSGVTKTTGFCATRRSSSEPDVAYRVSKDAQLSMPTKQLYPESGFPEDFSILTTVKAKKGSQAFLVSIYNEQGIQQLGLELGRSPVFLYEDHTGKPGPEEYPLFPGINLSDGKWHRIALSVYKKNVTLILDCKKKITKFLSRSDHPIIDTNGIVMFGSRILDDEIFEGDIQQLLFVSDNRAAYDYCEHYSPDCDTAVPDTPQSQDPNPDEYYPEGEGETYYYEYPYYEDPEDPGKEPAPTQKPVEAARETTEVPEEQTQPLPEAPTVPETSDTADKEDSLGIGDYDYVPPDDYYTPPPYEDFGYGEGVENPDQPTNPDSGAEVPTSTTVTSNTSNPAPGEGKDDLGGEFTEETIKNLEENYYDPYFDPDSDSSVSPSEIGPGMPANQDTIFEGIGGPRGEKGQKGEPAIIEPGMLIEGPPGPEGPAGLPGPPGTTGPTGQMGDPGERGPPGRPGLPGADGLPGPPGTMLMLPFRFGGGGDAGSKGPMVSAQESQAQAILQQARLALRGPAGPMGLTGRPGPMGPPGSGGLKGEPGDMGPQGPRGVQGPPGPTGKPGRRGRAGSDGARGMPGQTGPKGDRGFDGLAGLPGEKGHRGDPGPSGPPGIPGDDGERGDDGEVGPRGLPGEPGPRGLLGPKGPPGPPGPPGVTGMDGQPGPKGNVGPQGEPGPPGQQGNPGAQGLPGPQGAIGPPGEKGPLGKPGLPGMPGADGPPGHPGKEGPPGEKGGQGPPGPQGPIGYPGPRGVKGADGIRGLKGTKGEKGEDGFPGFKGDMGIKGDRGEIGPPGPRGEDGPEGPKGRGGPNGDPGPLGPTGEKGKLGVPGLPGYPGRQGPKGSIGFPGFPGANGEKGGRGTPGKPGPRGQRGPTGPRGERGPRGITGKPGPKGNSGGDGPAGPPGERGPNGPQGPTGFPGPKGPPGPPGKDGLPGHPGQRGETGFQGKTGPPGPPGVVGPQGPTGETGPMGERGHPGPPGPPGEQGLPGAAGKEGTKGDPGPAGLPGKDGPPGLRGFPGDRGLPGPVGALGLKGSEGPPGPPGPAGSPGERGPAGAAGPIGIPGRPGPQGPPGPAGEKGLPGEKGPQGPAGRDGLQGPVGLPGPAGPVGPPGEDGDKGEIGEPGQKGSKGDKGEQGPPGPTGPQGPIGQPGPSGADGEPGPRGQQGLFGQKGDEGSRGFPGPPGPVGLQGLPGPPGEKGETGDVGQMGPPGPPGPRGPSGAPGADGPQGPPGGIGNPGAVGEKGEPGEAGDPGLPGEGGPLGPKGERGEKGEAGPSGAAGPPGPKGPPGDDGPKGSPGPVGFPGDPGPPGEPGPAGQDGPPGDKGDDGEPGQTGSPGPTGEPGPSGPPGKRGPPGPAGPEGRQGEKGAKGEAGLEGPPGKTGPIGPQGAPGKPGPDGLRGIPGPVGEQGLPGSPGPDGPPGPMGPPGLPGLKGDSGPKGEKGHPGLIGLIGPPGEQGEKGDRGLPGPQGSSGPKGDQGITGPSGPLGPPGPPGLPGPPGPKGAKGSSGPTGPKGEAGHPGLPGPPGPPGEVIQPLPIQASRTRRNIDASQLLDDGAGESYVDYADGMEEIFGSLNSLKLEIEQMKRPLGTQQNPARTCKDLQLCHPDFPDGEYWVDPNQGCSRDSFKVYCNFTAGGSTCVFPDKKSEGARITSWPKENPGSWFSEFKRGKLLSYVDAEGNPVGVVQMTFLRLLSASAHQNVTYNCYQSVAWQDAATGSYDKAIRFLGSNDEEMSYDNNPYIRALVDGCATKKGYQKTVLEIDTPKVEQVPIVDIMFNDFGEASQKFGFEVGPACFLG

No constants are given. Whether binding was seen depends on the method and setting. Binding seen in cells or lysates may run through a third protein. These calls come from enrichment with a bait or labelling near it, and not all partners need be listed.

Regarding “Structural maintenance of chromosomes protein 3 (from UniProt Q9CW03 1-1217)”, the binding entry was “binds”.

As to “Hepatoma-derived growth factor (from UniProt P51859 1-237)”, the binding result is recorded as “binds”.

Turning to “Metalloproteinase inhibitor 1 (from UniProt P12032 25-205)”, the binding result is listed as “binds”.

As for “Lysyl oxidase homolog 2 (from UniProt P58022 26-776) (enzyme)”, the binding entry was “binds”.

As for “Collagen alpha-1 (COL12A1) (from UniProt Q60847 24-3120)”, the binding entry is on record as “binds”.

On to Annexin A5 (from UniProt P48036 2-319), for which the binding result is “binds”.

For “Basement membrane-specific heparan sulfate proteoglycan core protein (from UniProt Q05793 22-3707)”, the binding entry is given as “binds”.

Turning to “Endoplasmin (from UniProt P08113 22-802)”, the binding entry is listed as “binds”.

Consider “Calreticulin (from UniProt P14211 18-416)”, for which the binding entry was “binds”.

On to EMILIN-2 (from UniProt Q8K482 34-1074), for which the binding result is on record as “binds”.

With “Laminin subunit gamma-1 (from UniProt P02468 34-1607)”, the binding result was “binds”.

With “Tenascin-N (from UniProt Q80Z71 27-1560)”, the binding result is “binds”.

Turning to “Laminin subunit beta-2 (from UniProt Q61292 36-1799)”, the binding result was “binds”.

“Pyruvate kinase PKM (from UniProt P52480 1-531) (enzyme)”: the binding result is “binds”.

As to “Laminin subunit alpha-4 (from UniProt P97927 25-1816)”, the binding result was “binds”.

With Clusterin (from UniProt Q06890 22-448), the binding result is listed as “binds”.

As to “Laminin subunit beta-1 (from UniProt P02469 22-1786)”, the binding result is on record as “binds”.

On to Annexin A2 (from UniProt P07356 2-339), for which the binding entry is “binds”.

As to “Serine protease HTRA1 (from UniProt Q9R118 23-480) (enzyme)”, the binding result is “binds”.

Consider “Collagen alpha-2 (COL4A2) (from UniProt P08122 26-1707)”, for which the binding result is “binds”.

For “Fibronectin (FN1, co-purified with TNC) (from UniProt P11276 33-2477)”, the binding result is “binds”.

Take “Collagen alpha-1 (COL5A1) (from UniProt O88207 37-1838)”: the binding entry was “binds”.

For the substance “Collagen alpha-1 (COL18A1) (from UniProt P39061 27-1774)”, the binding result is recorded as “binds”.

As to “Versican core protein (from UniProt Q62059 24-3357)”, the binding entry is “binds”.

Values taken from EP3912994A1.
